Test [1] has as its target T1, NC410, a dimeric LAIR-2 human IgG1 Fc fusion protein (human) (UniProt Q6ISS4).
T1 sequence: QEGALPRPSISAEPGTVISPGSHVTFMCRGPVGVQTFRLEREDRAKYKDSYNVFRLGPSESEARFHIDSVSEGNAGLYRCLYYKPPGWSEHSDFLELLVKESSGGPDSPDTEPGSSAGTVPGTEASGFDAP
Briefly: BLI; ForteBio Octet RED96, avidity; anti-human Fc capture sensors loaded with LAIR-2-Fc (NC410, 20 µg/mL in ForteBio assay buffer), dipped into collagen I (1.56-100 µg/mL) or collagen III (0.78-50 µg/mL); both purified.

By UniProt entry, the sequences of proteins in these tests, tags left out. Where a name states a change or a piece, a line headed by the entry shows the natural chain unless it says otherwise. Residues count along the entry.
UniProt P02452: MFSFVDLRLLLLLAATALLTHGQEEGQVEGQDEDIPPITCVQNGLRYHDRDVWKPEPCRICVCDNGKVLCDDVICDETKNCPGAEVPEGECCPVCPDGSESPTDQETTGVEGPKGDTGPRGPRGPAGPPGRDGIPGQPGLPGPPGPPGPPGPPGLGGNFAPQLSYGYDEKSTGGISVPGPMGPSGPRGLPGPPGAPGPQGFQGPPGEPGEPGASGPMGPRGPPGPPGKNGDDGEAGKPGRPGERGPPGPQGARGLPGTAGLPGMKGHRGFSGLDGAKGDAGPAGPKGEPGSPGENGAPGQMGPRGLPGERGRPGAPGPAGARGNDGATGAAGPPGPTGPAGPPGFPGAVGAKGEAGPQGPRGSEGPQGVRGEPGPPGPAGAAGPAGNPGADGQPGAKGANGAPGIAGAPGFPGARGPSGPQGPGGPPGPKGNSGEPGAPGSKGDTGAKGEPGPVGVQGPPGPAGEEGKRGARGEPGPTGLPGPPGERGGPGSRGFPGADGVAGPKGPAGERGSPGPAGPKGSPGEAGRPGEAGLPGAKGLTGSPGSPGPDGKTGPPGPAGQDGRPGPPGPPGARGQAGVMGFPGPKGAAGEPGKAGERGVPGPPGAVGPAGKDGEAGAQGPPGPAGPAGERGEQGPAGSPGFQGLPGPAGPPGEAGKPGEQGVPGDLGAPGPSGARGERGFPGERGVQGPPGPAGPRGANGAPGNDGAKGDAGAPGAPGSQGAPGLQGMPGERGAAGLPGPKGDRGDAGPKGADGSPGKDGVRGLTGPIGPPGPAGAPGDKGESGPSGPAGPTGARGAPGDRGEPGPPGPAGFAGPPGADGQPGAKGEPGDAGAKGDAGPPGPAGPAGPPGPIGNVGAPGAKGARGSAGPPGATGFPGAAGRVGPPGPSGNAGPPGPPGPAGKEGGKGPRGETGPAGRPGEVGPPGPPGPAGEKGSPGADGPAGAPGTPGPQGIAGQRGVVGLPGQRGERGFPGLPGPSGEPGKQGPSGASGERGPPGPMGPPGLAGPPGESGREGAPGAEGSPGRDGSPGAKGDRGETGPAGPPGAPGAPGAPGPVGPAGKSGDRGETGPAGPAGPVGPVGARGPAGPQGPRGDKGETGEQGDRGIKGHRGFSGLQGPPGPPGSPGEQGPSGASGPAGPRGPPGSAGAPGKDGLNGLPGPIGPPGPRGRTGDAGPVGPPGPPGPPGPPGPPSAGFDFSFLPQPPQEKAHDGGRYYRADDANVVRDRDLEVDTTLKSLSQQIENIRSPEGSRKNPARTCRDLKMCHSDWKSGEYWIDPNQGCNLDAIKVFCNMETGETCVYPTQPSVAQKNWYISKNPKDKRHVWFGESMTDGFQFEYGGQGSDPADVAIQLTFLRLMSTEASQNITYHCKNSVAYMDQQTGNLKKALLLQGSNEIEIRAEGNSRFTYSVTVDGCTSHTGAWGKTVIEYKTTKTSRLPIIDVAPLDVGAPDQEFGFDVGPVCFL
UniProt P08123: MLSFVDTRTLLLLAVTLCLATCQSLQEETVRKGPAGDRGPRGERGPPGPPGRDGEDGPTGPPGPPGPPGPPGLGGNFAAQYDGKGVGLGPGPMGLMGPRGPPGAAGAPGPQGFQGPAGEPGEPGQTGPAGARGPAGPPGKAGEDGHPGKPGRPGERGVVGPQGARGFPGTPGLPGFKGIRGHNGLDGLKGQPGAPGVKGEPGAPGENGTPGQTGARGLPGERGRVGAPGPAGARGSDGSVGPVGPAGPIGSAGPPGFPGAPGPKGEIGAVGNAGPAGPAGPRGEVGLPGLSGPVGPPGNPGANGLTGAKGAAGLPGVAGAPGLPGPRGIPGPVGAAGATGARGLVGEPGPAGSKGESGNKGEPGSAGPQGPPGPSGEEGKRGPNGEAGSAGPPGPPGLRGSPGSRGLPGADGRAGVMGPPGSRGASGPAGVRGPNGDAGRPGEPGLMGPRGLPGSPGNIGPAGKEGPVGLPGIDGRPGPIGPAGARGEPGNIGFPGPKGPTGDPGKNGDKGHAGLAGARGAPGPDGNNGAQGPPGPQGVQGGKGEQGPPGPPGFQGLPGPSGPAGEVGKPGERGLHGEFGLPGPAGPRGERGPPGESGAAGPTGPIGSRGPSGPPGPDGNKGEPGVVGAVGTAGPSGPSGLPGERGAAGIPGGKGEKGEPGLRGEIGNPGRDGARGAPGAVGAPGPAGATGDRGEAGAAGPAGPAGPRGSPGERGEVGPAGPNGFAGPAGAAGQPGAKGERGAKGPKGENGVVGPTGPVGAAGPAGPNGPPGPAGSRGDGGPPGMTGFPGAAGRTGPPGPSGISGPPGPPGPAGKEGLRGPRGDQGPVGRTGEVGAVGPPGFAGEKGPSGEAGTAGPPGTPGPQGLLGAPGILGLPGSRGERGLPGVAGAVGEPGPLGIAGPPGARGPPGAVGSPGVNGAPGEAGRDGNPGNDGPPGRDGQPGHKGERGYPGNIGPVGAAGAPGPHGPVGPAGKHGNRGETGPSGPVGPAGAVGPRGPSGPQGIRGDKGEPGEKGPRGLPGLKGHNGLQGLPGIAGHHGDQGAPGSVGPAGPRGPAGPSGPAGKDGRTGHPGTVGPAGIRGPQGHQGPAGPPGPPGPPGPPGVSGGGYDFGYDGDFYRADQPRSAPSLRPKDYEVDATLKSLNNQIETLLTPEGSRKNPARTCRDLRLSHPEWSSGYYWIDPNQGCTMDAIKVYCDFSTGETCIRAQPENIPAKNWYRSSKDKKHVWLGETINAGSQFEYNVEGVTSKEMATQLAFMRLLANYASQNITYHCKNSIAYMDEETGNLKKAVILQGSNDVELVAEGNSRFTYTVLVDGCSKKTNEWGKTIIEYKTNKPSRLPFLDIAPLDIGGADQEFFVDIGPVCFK
UniProt P02461, residues 154-1221: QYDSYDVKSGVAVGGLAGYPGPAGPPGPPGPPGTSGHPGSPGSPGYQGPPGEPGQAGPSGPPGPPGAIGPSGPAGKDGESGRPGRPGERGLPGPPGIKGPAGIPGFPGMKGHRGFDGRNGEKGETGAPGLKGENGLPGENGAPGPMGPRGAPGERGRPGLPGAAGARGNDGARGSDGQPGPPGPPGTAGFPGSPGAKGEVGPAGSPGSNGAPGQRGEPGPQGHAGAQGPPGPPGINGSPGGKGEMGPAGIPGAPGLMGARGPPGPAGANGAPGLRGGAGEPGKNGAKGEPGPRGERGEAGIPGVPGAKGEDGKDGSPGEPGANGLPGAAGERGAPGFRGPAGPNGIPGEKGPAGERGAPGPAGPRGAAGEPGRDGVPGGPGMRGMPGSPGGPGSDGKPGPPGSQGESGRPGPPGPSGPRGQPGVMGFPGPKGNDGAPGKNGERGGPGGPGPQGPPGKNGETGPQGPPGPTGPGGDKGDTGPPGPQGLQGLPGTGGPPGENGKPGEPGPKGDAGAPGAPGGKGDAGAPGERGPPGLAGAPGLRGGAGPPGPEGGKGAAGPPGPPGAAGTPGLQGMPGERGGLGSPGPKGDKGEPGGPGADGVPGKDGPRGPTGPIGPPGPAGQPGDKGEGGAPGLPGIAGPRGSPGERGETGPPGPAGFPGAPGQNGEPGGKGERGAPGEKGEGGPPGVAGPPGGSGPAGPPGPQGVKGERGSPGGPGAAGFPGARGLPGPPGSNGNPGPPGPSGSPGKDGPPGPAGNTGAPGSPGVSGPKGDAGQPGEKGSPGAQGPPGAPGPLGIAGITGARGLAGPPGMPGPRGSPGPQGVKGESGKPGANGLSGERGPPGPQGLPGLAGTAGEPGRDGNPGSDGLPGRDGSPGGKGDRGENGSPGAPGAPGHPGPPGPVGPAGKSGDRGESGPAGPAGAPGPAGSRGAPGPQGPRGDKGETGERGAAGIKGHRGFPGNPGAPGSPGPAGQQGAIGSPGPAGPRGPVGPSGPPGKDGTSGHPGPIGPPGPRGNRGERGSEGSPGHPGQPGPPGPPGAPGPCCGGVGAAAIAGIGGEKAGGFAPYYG
UniProt P11087: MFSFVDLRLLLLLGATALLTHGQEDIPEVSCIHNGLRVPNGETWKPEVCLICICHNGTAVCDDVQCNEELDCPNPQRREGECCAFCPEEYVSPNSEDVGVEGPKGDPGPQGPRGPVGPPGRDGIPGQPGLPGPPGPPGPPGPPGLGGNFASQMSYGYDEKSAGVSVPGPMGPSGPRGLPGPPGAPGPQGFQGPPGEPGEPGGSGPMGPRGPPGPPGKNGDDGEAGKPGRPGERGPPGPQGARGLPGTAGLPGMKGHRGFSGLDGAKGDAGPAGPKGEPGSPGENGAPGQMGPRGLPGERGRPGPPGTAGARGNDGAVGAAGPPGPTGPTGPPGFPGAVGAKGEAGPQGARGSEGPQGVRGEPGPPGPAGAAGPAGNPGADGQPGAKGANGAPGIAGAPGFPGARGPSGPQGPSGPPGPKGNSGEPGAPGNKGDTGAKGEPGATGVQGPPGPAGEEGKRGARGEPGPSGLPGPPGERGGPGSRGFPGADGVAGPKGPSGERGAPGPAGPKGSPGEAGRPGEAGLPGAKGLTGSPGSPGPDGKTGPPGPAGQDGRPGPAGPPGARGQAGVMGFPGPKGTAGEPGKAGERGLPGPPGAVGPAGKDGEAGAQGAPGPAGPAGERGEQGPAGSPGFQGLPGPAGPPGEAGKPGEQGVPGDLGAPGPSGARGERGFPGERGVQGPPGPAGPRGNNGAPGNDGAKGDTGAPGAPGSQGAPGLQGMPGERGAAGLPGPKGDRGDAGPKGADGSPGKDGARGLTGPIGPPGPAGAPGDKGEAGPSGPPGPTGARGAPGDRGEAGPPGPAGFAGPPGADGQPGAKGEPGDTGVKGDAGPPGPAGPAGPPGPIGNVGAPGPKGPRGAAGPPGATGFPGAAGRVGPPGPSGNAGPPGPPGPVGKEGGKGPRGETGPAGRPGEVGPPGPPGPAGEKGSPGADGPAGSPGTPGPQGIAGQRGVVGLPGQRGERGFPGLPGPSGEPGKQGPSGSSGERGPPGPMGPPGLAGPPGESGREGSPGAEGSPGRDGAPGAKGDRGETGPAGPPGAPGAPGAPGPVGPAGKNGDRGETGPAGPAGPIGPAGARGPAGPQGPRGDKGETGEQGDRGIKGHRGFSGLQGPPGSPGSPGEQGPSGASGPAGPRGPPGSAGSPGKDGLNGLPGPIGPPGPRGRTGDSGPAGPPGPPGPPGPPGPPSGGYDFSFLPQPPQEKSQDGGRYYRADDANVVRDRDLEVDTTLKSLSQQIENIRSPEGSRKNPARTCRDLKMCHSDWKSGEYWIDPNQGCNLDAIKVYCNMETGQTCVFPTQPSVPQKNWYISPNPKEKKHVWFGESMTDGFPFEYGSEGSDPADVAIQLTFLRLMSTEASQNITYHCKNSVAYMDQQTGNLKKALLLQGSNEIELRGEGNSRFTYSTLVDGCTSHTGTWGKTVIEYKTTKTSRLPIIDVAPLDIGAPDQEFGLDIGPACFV
UniProt P13941, residues 155-1218: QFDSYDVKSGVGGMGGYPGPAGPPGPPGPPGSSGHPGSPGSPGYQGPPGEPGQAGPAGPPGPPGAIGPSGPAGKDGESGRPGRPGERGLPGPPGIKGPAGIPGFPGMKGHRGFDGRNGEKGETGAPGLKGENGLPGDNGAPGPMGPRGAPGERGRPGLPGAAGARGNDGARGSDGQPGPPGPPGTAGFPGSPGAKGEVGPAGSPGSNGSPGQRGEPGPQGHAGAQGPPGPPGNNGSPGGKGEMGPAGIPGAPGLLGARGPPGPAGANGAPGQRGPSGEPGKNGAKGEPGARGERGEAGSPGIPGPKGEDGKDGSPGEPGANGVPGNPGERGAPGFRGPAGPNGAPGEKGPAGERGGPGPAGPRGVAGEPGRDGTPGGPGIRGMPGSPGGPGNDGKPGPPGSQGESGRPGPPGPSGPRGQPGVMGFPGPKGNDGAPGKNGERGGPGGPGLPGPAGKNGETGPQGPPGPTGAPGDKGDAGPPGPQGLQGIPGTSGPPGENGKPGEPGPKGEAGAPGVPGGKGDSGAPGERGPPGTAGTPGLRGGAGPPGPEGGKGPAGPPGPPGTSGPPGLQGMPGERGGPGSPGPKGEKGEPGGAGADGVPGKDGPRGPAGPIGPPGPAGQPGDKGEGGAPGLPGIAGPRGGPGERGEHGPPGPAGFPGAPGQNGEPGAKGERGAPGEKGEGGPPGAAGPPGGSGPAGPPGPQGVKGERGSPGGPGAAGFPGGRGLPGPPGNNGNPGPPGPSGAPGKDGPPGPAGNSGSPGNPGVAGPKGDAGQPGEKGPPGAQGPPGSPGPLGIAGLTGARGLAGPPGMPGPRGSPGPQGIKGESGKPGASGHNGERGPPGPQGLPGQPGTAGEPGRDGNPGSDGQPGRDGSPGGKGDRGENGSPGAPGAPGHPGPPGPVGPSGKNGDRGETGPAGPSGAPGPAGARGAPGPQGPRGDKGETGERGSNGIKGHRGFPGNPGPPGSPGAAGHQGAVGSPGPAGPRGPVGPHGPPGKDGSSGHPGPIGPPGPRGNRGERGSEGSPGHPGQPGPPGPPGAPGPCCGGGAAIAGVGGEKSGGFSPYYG

Test [2] concerns the target human collagen I (StemCell) (human) (UniProt P02452+P08123). Briefly: time-resolved fluorometry (TRF) immunoassay; EIA plates coated with human collagen I in 0.01 N HCl overnight at 4°C, blocked with 3% BSA; mixture of NC410 and human LAIR-1 Fc (one of them biotinylated) 2 hr at ambient temperature; Europium-labeled streptavidin, DELFIA; both purified.

The text below walks through data of publication PMC8225389.

Results are given in words; binding and its absence hold for the method and conditions named. Some entries that bind do so weakly or less than the wild type. Tags and fused reporters may be left off the sequences shown.

For the molecule “human collagen III (R&D Systems) (from UniProt P02461 154-1221)”, the binding result in test [1] is “binds”.

With “mouse collagen I (Ray Biotech) (from UniProt P11087 152-1207; Q01149 86-1125)”, the binding entry in test [1] is on record as “binds”. For “rat collagen I (Yo Protein) (from UniProt P02454 152-1207; P02466 86-1125)”, the binding result in test [1] is “binds”. As to “rat collagen III (Yo Protein) (from UniProt P13941 155-1218)”, the binding result in test [1] is reported as “binds”.

B1: NC410, a dimeric LAIR-2 human IgG1 Fc fusion protein (Fc fusion, UniProt Q6ISS4 22-152)
chain: T1 sequence
Turning to B1, the binding result in test [2] is “binds”.

B2: human LAIR-1 Fc fusion protein (Fc fusion, UniProt Q6GTX8 22-165)
chain: QEEDLPRPSISAEPGTVIPLGSHVTFVCRGPVGVQTFRLERDSRSTYNDTEDVSQASPSESEARFRIDSVREGNAGLYRCIYYKPPKWSEQSDYLELLVKESSGGPDSPDTEPGSSAGPTQRPSDNSHNEHAPASQGLKAEHLY
modifications: biotin (EZ-Link NHS-PEG4-Biotin)
For the molecule B2, the binding entry in test [2] was “binds”.
